From publication PMC11984319

Biological target: T1, GST-IRX5 (iroquois homeobox 5 fused to glutathione-S-transferase) (UniProt P78411)
T1 sequence: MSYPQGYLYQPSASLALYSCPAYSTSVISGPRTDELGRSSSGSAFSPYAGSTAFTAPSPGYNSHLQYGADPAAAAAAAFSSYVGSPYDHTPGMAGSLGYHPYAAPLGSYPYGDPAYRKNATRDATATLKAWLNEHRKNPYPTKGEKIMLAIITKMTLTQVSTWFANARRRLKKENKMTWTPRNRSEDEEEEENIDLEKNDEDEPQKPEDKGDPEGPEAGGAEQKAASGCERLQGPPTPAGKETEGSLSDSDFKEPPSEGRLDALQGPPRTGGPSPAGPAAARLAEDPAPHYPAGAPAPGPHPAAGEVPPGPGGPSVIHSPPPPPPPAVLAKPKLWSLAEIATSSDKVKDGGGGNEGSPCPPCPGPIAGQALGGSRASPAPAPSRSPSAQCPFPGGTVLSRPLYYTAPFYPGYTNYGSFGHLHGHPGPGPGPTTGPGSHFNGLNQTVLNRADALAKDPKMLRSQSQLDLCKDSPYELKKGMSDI
Assay: affinity purification with mass spectrometry; GST-IRX5 or GST alone immobilised on glutathione Sepharose 4B beads, incubated with whole-cell extracts of HepG2 cells; bound proteins eluted, SDS-PAGE and mass spectrometry; only the target purified

Substance: high-mobility group nucleosomal binding domain 4 (HMGN4), endogenous in HepG2 (from UniProt O00479 1-90)
- binding: binds

No constants are given. Whether binding was seen depends on the method and setting. In cells and extracts the contact can be indirect. A yes stands for co-enrichment or nearness to the bait. Other partners may have been found. Sequences can lack the tags named with a protein.
